Laboratory results: PubChem BioAssay AID602196 (INSERM, 2012)

Screen: 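Modifiers of cisplatin sensitivity in A549 cells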
System: human A549 lung cancer cells
Knock-down reagent: siRNA pair against human genes
Time to read-out: 48 h transfection before cisplatin; time from cisplatin to read-out not stated
Treatment: cisplatin at a dose killing half of control-siRNA cells; exact dose and duration not given
Measured: 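Shift in cisplatin death relative to control siRNA, from -50 (all cells die) to +50 (no cells die); siRNAs harmful on their own scored 0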
Direction: two-siRNA summed score (-2 to +2): higher = both siRNAs protect from cisplatin killing; -2 means both sensitise
Call rule: 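siRNAs harmful alone (LDH or WST-1) get 0; others get +1 for less and -1 for more cisplatin killing; genes are active when the two siRNAs give the same sign, summing to ±2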
Meaning of the calls: active = both siRNAs shift cisplatin killing the same way; inactive = no consistent shift, or siRNA harmful alone
The deposit covers about 23,000 reagents; below is an unselected part. 455 of all reagents (2%) were called active. 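Active includes both protection and sensitisation; some change values fall well beyond the stated -50 to +50 range.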 Further read-outs or replicates are left out here. Not given: the amount of reagent.

Gene	two-siRNA summed score (-2 to +2)	Outcome
ARHGEF28	0	inactive
KRT84	-1	inactive
LOC440333	1	inactive
LOC441657	0	inactive
NEUROD2	1	inactive
LOC87769	0	inactive
DSE	0	inactive
LOC389831	0	inactive
ALDH1B1	-1	inactive
SMIM3	0	inactive
SPAG7	0	inactive
LOC391827	0	inactive
NUP35	2	active
RAB1B	0	inactive
MOV10L1	0	inactive
LOC441483	1	inactive
ARK2C	0	inactive
CLK4	1	inactive
NUP98	0	inactive
HSPE1	-1	inactive
CCDC74B	1	inactive
VSTM4	0	inactive
USP13	0	inactive
ALG5	0	inactive
PELP1	0	inactive
LOC116064	1	inactive
ANO3	0	inactive
SAA2	-1	inactive
OR12D3	1	inactive
ASB7	1	inactive
MAGEA12	1	inactive
LOC401893	-1	inactive
LOC387941	1	inactive
LINC00858	0	inactive
WDR93	0	inactive
LOC441209	1	inactive
SLC22A8	0	inactive
LOC442370	1	inactive
LMNTD1	1	inactive
